Where a sequence shows no end group, the ends are not given.
Assay: peptide made by a vendor
Conditions: whole synthesis, high-performance liquid chromatography, several disulfide bridges, sequence written open

For GFGCNGPWNEDDLRCHNHCKSIKGYKKKYCAKGGFVCKC, the “final HPLC purity” value was >97%.
